Results are given in words; binding and its absence hold for the method and conditions named.
Target: mouse β2-microglobulin (mouse) (UniProt P01887)
Assay: condition: only pH 2.5 without added NaCl (50 μM protein); AUC; sedimentation velocity, 25 °C, 48,000 rpm, 50 μM protein, pH 2.5 without added NaCl, absorbance at 280 nm, SEDFIT; both purified

binding: no binding
B1: mouse β2-microglobulin (natural protein, UniProt P01887 21-119, looked up)
chain: IQKTPQIQVYSRHPPENGKPNILNCYVTQFHPPHIEIQMLKNGKKIPKVEMSDMSFSKDWSFYILAHTEFTPTETDTYACRVKHASMAEPKTVYWDRDM
notes: β2-microglobulin, mouse; In the AUC the protein was acid-unfolded at pH 2.5; also called mβ2m; source: expressed and prepared as described previously [47]; purified (anion exchange at pH 8.5, gel filtration), lyophilised

Source: PMC4773402, “Comparison of the aggregation of homologous β2-microglobulin variants reveals protein solubility as a key determinant of amyloid formation” (Journal of Molecular Biology, 2016)
